Consider three molecules from article PMC11269292.

Assay [1] has as its target PON2-3×HA (paraoxonase-2, from pEF1a-PON2-3×HA-SV40-Puro) (human (cDNA of HepG2 cells)) (UniProt Q15165). The assay can be described thus: co-IP; HEK293T co-transfected with ASGR1-3×Flag and candidate-3×HA; whole-cell extracts precipitated with anti-HA antibody (rabbit IgG as control) 12 h at 4°C, Protein A/G Agarose, five washes; western blot for Flag and HA.
Assay [2] has as its target T1, ASGR1-3×Flag (asialoglycoprotein receptor 1, from pEF1a-ASGR1-3×Flag-IRES-GFP) (human) (UniProt P07306).
T1 sequence: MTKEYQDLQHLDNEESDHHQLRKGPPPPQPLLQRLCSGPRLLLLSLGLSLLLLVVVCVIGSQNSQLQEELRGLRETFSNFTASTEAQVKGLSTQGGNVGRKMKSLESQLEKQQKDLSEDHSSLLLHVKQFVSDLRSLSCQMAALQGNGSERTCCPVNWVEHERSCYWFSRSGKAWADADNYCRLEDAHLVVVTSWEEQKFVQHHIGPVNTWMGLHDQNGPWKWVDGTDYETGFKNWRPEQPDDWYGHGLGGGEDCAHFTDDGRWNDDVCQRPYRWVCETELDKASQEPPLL
Nature of the assay: co-IP; HEK293T co-transfected with HA-tagged PON2 (or its truncations) and Flag-tagged ASGR1; precipitated with Flag antibody (ASGR1 as bait); western blot for PON2 and ASGR1.

These are yes or no findings as the source states them, for the method shown. In cells and extracts the contact can be indirect. Some entries that bind do so weakly or less than the wild type. Sequences can lack the tags named with a protein.

B1: ASGR1-3×Flag (asialoglycoprotein receptor 1, from pEF1a-ASGR1-3×Flag-IRES-GFP) (receptor, UniProt P07306 1-291)
chain: MTKEYQDLQHLDNEESDHHQLRKGPPPPQPLLQRLCSGPRLLLLSLGLSLLLLVVVCVIGSQNSQLQEELRGLRETFSNFTASTEAQVKGLSTQGGNVGRKMKSLESQLEKQQKDLSEDHSSLLLHVKQFVSDLRSLSCQMAALQGNGSERTCCPVNWVEHERSCYWFSRSGKAWADADNYCRLEDAHLVVVTSWEEQKFVQHHIGPVNTWMGLHDQNGPWKWVDGTDYETGFKNWRPEQPDDWYGHGLGGGEDCAHFTDDGRWNDDVCQRPYRWVCETELDKASQEPPLL
As for B1, the binding result in assay [1] is “binds”.

B2: PON2 truncation PΔ2 (Δ123–231), HA-tagged (domain or fragment, UniProt Q15165)
chain: MGRLVAVGLLGIALALLGERLLALRNRLKASREVESVDLPHCHLIKGIEAGSEDIDILPNGLAFFSVGLKFPGLHSFAPDKPGGILMMDLKEEKPRARELRISRGFDLASFNPHGISTFIDNKYIYVADILAHEIHVLEKHTNMNLTQLKVLELDTLVDNLSIDPSSGDIWVGCHPNGQKLFVYDPNNPPSSEVLRIQNILSEKPTVTTVYANNGSVLQGSSVASVYDGKLLIGTLYHRALYCEL
For B2, the binding entry in assay [2] was “binds”.

B3: PON2 truncation PΔ3 (Δ232–354), HA-tagged (domain or fragment, UniProt Q15165 1-231)
chain: MGRLVAVGLLGIALALLGERLLALRNRLKASREVESVDLPHCHLIKGIEAGSEDIDILPNGLAFFSVGLKFPGLHSFAPDKPGGILMMDLKEEKPRARELRISRGFDLASFNPHGISTFIDNDDTVYLFVVNHPEFKNTVEIFKFEEAENSLLHLKTVKHELLPSVNDITAVGPAHFYATNDHYFSDPFLKYLETYLNLHWANVVYYSPNEVKVVAEGFDSANGINISPDD
On to B3, for which the binding entry in assay [2] is listed as “binds”.
